Assay results reported in US20240243327A1, “NAPHTHALENE DIIMIDE COMPOUND AND REDOX FLOW BATTERY CONTAINING THE SAME” (Korea Advanced Institute of Science and Technology, priority 2023, published 2024).
At least one compound was matched to its structure with a doubt left.

Legend:
[1] = Cyclic voltammetry in KCl solution, three-electrode cell; format: physicochemical; conditions: CV vs I^−/I3^−, scan rate 50 mV·s^−1
[2] = Analysis of RFB performance (full flow cell, 4A^4+-NDI negolyte / NH4I posolyte in 1.5 M KCl)

C[N+](C)(C)CCC[N+](C)(C)CCCN1C(=O)c2ccc3c4c(ccc(c24)C1=O)C(=O)N(CCC[N+](C)(C)CCC[N+](C)(C)C)C3=O [Example 1]
potential difference between negative and positive electrode electrolyte solution, c1 wave [1]: 0.87 V | potential difference between negative and positive electrode electrolyte solution, c2 wave [1]: 1.15 V | capacity decay per cycle ([2]; 25 mA·cm^−2, 500 cycles): 0.004% | capacity maintained in long-term cycling ([2]; 25 mA·cm^−2, 500 cycles, 45 days): about 98% | capacity decay per day ([2]; 25 mA·cm^−2, 45 days): 0.044%
